# Data source: PubChem BioAssay AID504804 (Drosophila RNAi Screening Center, 2011)
# Assay: 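Knock-downs shielding fly cells from apoptosis caused by DNA damage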 (primary screen)
# Cell system: Drosophila Kc cells
# Reagents: long dsRNA against Drosophila genes, 0.5 µg dsRNA per well
# Time to read-out: 96 h (48 h knock-down, then 48 h drug)
# Treatment: doxorubicin 5 µg/ml for 48 h, added 48 h after dsRNA
# Measurement: 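Luminescent ATP counts per replicate, not normalised, reflecting viable cells after 48 h dsRNA knock-down followed by 48 h of 5 µg/ml doxorubicin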
# Direction: raw ATP luminescence: higher = more viable cells, protection from doxorubicin
# Hit rule: 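Active when both duplicate wells lie at least 2 SD above the plate mean and protection is confirmed by rescreening and independent dsRNAs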
# The screen tested about 19,000 reagents; shown is an unselected part of those that have a named target and a result. Of all reagents, 47 (0.25%) got an active call. 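Signals are raw, not normalised; exact z-scores behind calls not deposited; actives needed confirmation, so some wells reaching 2 SD are inactive.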 Names joined by + are all predicted targets of the reagent.
predicted target,DRSC id,SD above plate mean,"raw ATP luminescence, replicate 1","raw ATP luminescence, replicate 2",outcome
CG13369,DRSC18481,,41770,47350,inactive
PIP82,DRSC18694,,43050,42640,inactive
dyw,DRSC18228,,44370,54230,inactive
cib,DRSC18660,,38240,37220,inactive
naz,DRSC14790,,71670,74580,inactive
naz,DRSC16199,,67250,71750,inactive
Fib,DRSC04614,,38017,55717,inactive
beag,DRSC15296,,46280,19507,inactive
Or13a,DRSC20265,,3.41e5,3.12e5,inactive
SPE,DRSC15135,,38943,36947,inactive
TfIIEalpha,DRSC11303,,49510,31870,inactive
CG42633,DRSC16061,,51713,72213,inactive
CG8586,DRSC07218,,64800,49963,inactive
CG9130 + CG9133,DRSC08624,,2.55e5,2.88e5,inactive
CG9130 + CG9133,DRSC08625,,75590,75683,inactive
CG11808,DRSC06088,,65113,68520,inactive
Dfd,DRSC12593,,77493,61780,inactive
kek6,DRSC15299,,31870,33850,inactive
Ir87a,DRSC14836,,88790,99610,inactive
CG3927,DRSC04433,,64307,50737,inactive
CG30026,DRSC05276,,68887,88397,inactive
CG7432,DRSC16243,,48950,53420,inactive
Tsp68C,DRSC09295,,38453,52997,inactive
Fpgs1,DRSC19857,,2.91e5,2.68e5,inactive
CG7102,DRSC02647,,1.07e5,64490,inactive
CG7102,DRSC03007,,45357,77623,inactive
magu,DRSC06832,,81810,69623,inactive
PIG-N,DRSC06837,,38837,82167,inactive
l(3)neo38,DRSC14946,,48437,62390,inactive
l(3)neo38,DRSC16138,,51047,51870,inactive
FRG1,DRSC10648,,65760,51930,inactive
mRpL12,DRSC10467,,49323,37217,inactive
wek,DRSC03561,,88710,71597,inactive
scro,DRSC17099,,2.58e5,2.54e5,inactive
scro,DRSC17102,,54450,70660,inactive
CG5087,DRSC10479,,74343,77963,inactive
CG6508,DRSC02963,,49427,78307,inactive
dac,DRSC03518,,54400,77827,inactive
H,DRSC16692,,82720,83390,inactive
CG13318,DRSC14581,,54103,54990,inactive
CG12360 (retired record),DRSC14505,,1.18e5,62790,inactive
GramD1B,DRSC00426,,23337,28450,inactive
GramD1B,DRSC00591,,92923,50343,inactive
SMC3,DRSC20227,,3.08e5,2.77e5,inactive
RNaseZ,DRSC06845,,67397,84393,inactive
DCTN4-p62,DRSC06101,,55207,48893,inactive
CG13982,DRSC02314,,30303,29337,inactive
CG10809,DRSC09802,,69333,58667,inactive
CG5357 (retired record),DRSC04497,,42370,46697,inactive
CG9150,DRSC03148,,22027,36583,inactive
SLIRP2,DRSC16363,,66507,58723,inactive
CG3894,DRSC01762,,60300,55917,inactive
CG3894,DRSC04012,,73473,81670,inactive
CG3894,DRSC04429,at least 3 SD above plate mean,1.04e5,85130,active
Vamp7,DRSC06599,,39637,68567,inactive
CG14306 (retired record),DRSC14785,,65600,64440,inactive
CG3356,DRSC04358,,72463,69150,inactive
PNUTS,DRSC00638,,94210,54070,inactive
zyd,DRSC20716,,3.05e5,2.93e5,inactive
CG33981 + fab1,DRSC07412,,55317,68597,inactive
CG18853,DRSC06795,,34487,1.21e5,inactive
X11L,DRSC19958,,1.99e5,2.11e5,inactive
X11L,DRSC19959,,2.09e5,2.00e5,inactive
tst + CG10375,DRSC14237,,29523,27080,inactive
mAcon1,DRSC01853,,77967,76200,inactive
CG15337,DRSC18020,,32980,47860,inactive
Hey,DRSC07440,,11380,17503,inactive

14 entries from above, set out differently:
{"predicted target":"GramD1B","DRSC id":"DRSC00426","raw ATP luminescence, replicate 1":23337,"raw ATP luminescence, replicate 2":28450,"outcome":"inactive"}
{"predicted target":"GramD1B","DRSC id":"DRSC00591","raw ATP luminescence, replicate 1":92923,"raw ATP luminescence, replicate 2":50343,"outcome":"inactive"}
{"predicted target":"SMC3","DRSC id":"DRSC20227","raw ATP luminescence, replicate 1":3.08e5,"raw ATP luminescence, replicate 2":2.77e5,"outcome":"inactive"}
{"predicted target":"RNaseZ","DRSC id":"DRSC06845","raw ATP luminescence, replicate 1":67397,"raw ATP luminescence, replicate 2":84393,"outcome":"inactive"}
{"predicted target":"DCTN4-p62","DRSC id":"DRSC06101","raw ATP luminescence, replicate 1":55207,"raw ATP luminescence, replicate 2":48893,"outcome":"inactive"}
{"predicted target":"CG13982","DRSC id":"DRSC02314","raw ATP luminescence, replicate 1":30303,"raw ATP luminescence, replicate 2":29337,"outcome":"inactive"}
{"predicted target":"CG10809","DRSC id":"DRSC09802","raw ATP luminescence, replicate 1":69333,"raw ATP luminescence, replicate 2":58667,"outcome":"inactive"}
{"predicted target":"CG5357 (retired record)","DRSC id":"DRSC04497","raw ATP luminescence, replicate 1":42370,"raw ATP luminescence, replicate 2":46697,"outcome":"inactive"}
{"predicted target":"CG9150","DRSC id":"DRSC03148","raw ATP luminescence, replicate 1":22027,"raw ATP luminescence, replicate 2":36583,"outcome":"inactive"}
{"predicted target":"SLIRP2","DRSC id":"DRSC16363","raw ATP luminescence, replicate 1":66507,"raw ATP luminescence, replicate 2":58723,"outcome":"inactive"}
{"predicted target":"CG3894","DRSC id":"DRSC01762","raw ATP luminescence, replicate 1":60300,"raw ATP luminescence, replicate 2":55917,"outcome":"inactive"}
{"predicted target":"CG3894","DRSC id":"DRSC04012","raw ATP luminescence, replicate 1":73473,"raw ATP luminescence, replicate 2":81670,"outcome":"inactive"}
{"predicted target":"CG3894","DRSC id":"DRSC04429","SD above plate mean":"at least 3 SD above plate mean","raw ATP luminescence, replicate 1":1.04e5,"raw ATP luminescence, replicate 2":85130,"outcome":"active"}
{"predicted target":"Vamp7","DRSC id":"DRSC06599","raw ATP luminescence, replicate 1":39637,"raw ATP luminescence, replicate 2":68567,"outcome":"inactive"}

Additional records follow:
predicted target,DRSC id,SD above plate mean,"raw ATP luminescence, replicate 1","raw ATP luminescence, replicate 2",outcome
Prosalpha6T,DRSC02873,,48167,72300,inactive
ndl,DRSC11374,,83690,80150,inactive
CCHa2-R,DRSC04825,,65910,84097,inactive
CCHa2-R,DRSC04870,,39570,46730,inactive
CCHa2-R,DRSC04871,,47277,41177,inactive
cocoon,DRSC10916,,41570,29437,inactive
CG3735,DRSC04411,,62170,54147,inactive
betaTub60D,DRSC04673,,52310,52593,inactive
Dhc16F,DRSC20242,,3.67e5,3.14e5,inactive
CG30286,DRSC04070,,66580,65037,inactive
Vps13D,DRSC09818,,78837,55277,inactive
Vps13D,DRSC09819,,81573,65340,inactive
CARPA,DRSC17905,,42240,41890,inactive
CG33502 + CG32857 + CG32500,DRSC20817,,2.23e5,2.50e5,inactive
CG33502 + CG32857 + CG32500,DRSC21038,,1.95e5,2.10e5,inactive
Jabba,DRSC06521,,72037,60047,inactive
ND-19,DRSC04404,,40523,56387,inactive
CG8441,DRSC07180,,66553,72333,inactive
Psa,DRSC08152,,63547,61773,inactive
CG15534,DRSC15070,,28420,33530,inactive
CG13698,DRSC10047,,20607,21270,inactive
CG14642,DRSC12228,,20270,21803,inactive
CG17154,DRSC10253,,97997,80810,inactive
Fibp,DRSC11031,,26247,25933,inactive
CG31343,DRSC15887,,40770,46490,inactive
CG8435,DRSC07179,,53803,62493,inactive
CG14507,DRSC14859,,55100,34480,inactive
RpS13,DRSC03419,,26503,24527,inactive
CG13992,DRSC02324,,25910,30350,inactive
CG3199,DRSC15467,,1.34e5,60820,inactive
Mst33A,DRSC03371,,41497,76363,inactive
CG14756,DRSC06491,,54507,77237,inactive
CG33286,DRSC11691,,81227,63420,inactive
Acox57D-d,DRSC04561,,88773,63973,inactive
Con,DRSC08652,,47240,38463,inactive
Myt1,DRSC11228,,73787,91153,inactive
ihog,DRSC03157,,1.04e5,61597,inactive
CG8248,DRSC07124,,62300,60493,inactive
CG33704,DRSC03838,,76687,89917,inactive
ASPP,DRSC04305,,21903,21143,inactive
